The exact form of at least one protein or probe is not confirmed. Weaker means in comparison with the reference protein, sequence or condition of that experiment. Protein sequences can lack the tags named with them.
Molecular target: T1, TtSmtB (Thermus thermophilus HB27) (UniProt Q72KG0)
T1 sequence (looked up): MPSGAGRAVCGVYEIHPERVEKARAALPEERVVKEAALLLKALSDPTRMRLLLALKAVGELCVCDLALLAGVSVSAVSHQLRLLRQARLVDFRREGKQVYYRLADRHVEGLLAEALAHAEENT
Experiment: EMSA
Details: 50- and 100-fold molar excess, 2.5 uM protein, EMSA as in Fiorentino et al., 2007 (buffer not given here), 0-15 uM protein, 1 nM probe in the competition assay, footprinting in binding buffer, DNase I 1 min at 37 C, recombinant protein, residues 1-123, protein details: His tag (pET28b) removed by thrombin, probe letters rebuilt from the primers and the genome

“CGCCTCGCCGACCGGCACGTGGAGGGCCTGTTGGCGGAGGCCCTGGCCCACGCGGAAGAAAACACTTGACCAGTTGCTCAAATGATGCTACCCTGGGGGCATGAAGGCTCCCAGAGTGCGCGTCTTCCGGGTAGAGGGCATGG (double strand) [0354p (TTC0354 promoter)]”: binds more weakly (arsenate (KH2AsO4)); binds more weakly (arsenite (NaAsO2), less efficient than arsenate).
